# Results published in the supplement of paper PMC4371806.
# Over roughly 2,300 compounds, “plate-normalized OD600 growth (mean of duplicates)” has its median near 0.29; the lowest 2% begin near 0.22. The list shows a part of the results.
# Test system: Escherichia coli BW25113
# Assay: plate-normalized OD600 growth (mean of duplicates) (OD600 (normalized)); higher = more growth (less inhibition)
# Conditions: 10 µM
# Protocol: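 E. coli BW25113 in LB (100 µl, 96-well, no shaking) was exposed to 10 µM of each compound from a ~30,000-member library and grown at 37°C for 24 h or 15°C for 48 h, in duplicate. Growth was read as OD600 and the duplicate ODs were normalized across screening plates to correct plate-to-plate variation. Hits were >3σ below the mean OD600 at 15°C and <2σ below the mean at 37°C.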
Compound,"plate-normalized OD600 growth (temperature: 15°C, 48 h)","plate-normalized OD600 growth (temperature: 37°C, 24 h)"
N#C/C(=C/c1ccc(-c2ccc(Cl)c(Cl)c2)o1)c1[nH]nc(N)c1C#N,0.257,0.623
CNc1nc(C)c(-c2nc(Nc3cccc(S(N)(=O)=O)c3)ncc2F)s1,0.255,0.611
CCOc1nn(-c2ccccc2)c(NC2CCCCC2)c1C(F)(F)F,0.235,0.609
Nc1ccc2nonc2c1N,0.246,0.624
CCOC(=O)C1C(=O)C=C(c2cccs2)CC1c1ccc(OC)c(OC)c1Cl (stereo not drawn),0.247,0.621
O=C(COc1ccc(C(F)(F)F)cc1[N+](=O)[O-])Nc1cccc(C(F)(F)F)c1,0.264,0.633
CN(C)c1ccc(C=Nc2cc[c-]cc2)cc1.CN(C)c1ccc(C=Nc2cc[c-]cc2)cc1.[Cu+2],0.253,0.622
COc1ccc(/C=C2\CC/C(=C\c3ccc(OC)c(OC)c3)C2=O)cc1OC,0.235,0.63
Cc1nnsc1C(=O)Nc1ccc(CN2CCS(=O)(=O)CC2)cc1,0.244,0.614
Cc1cccc2cc[nH]c12,0.262,0.623
COc1ccc(CCN2C(=O)C(O)=C(C(=O)c3cccs3)C2c2ccccc2F)cc1OC (stereo not drawn),0.248,0.619
Cc1cc(C(=O)O)ccc1-n1c(C)cc(C=Nc2ccc(C#N)cc2)c1C,0.24,0.619
C/C(=N/O)c1ccn(S(=O)(=O)c2ccc(Cl)cc2)c1,0.241,0.627
CC(C)COc1ccc(C2NC(=O)NC2=O)cc1 (stereo not drawn),0.25,0.618
Cc1ccc2cc(C)c(NCc3cccnc3)nc2c1,0.237,0.605
CCOC(=O)c1ccc(-n2nnnc2C(c2ccc(Cl)cc2Cl)N2CCOCC2)cc1 (stereo not drawn),0.241,0.645
COC(=O)C1=C(C)C(c2ccc(OC)cc2)NC(=O)N1 (stereo not drawn),0.27,0.628
O=C(NN1C(=O)c2ccc(C(=O)c3cccc([N+](=O)[O-])c3)cc2C1=O)c1ccncc1,0.253,0.632
CC(C)(C)C1=CC(=O)C=C(C(C)(C)C)C1=O,0.243,0.621
COc1cc(/C=c2/sc3n(c2=O)C(c2c(OC)ccc4ccccc24)C(C(C)=O)=C(C)N=3)cc(OC)c1OC (stereo not drawn),0.254,0.616
CCN(CC)c1ccc(C2C(C(=O)OC3CCCCC3)=C(C)NC3=C2C(=O)CC(c2ccc(Cl)cc2)C3)cc1 (stereo not drawn),0.238,0.614
Nc1c(C(=O)c2ccc(Br)cc2)sc2nc(-c3ccccc3)cc(-c3ccccc3)c12,0.256,0.621
CC(=O)C1=C(O)C(=O)N(Cc2ccccc2)C1c1ccc(Cl)cc1 (stereo not drawn),0.248,0.622
CCc1ccc(NC(=O)CSc2nnc3n(N)cnn23)cc1,0.238,0.609
O=C1C=C(Sc2ccc([N+](=O)[O-])cc2)C(=O)c2ccccc21,0.249,0.609
O=c1[nH]c(-c2cn[nH]c2-c2ccc(F)cc2)nc2sc3c(c12)CCCC3,0.237,0.637
COc1cc([N+](=O)[O-])c(OC)cc1SCC(=O)NNC(=O)c1cc(OC)c(OC)c(OC)c1,0.224,0.614
COc1ccc(NC(=O)c2cc(C(F)(F)F)cc(C(F)(F)F)c2)cn1,0.239,0.59
O=C(/C=C/c1ccccc1)Oc1ccc(-c2cnc3ccccc3n2)cc1,0.253,0.632

# Sorted by length of the SMILES (rising): some entries from above.
Compound,"plate-normalized OD600 growth (temperature: 15°C, 48 h)","plate-normalized OD600 growth (temperature: 37°C, 24 h)"
COC(=O)C1=C(C)C(c2ccc(OC)cc2)NC(=O)N1 (stereo not drawn),0.27,0.628
CCOC(=O)C1C(=O)C=C(c2cccs2)CC1c1ccc(OC)c(OC)c1Cl (stereo not drawn),0.247,0.621
CCOC(=O)c1ccc(-n2nnnc2C(c2ccc(Cl)cc2Cl)N2CCOCC2)cc1 (stereo not drawn),0.241,0.645
